Results of single-concentration screens

By UniProt entry, the sequences of proteins in these tests, tags left out. Residues count along the entry.
UniProt P9WFT3, whole entry: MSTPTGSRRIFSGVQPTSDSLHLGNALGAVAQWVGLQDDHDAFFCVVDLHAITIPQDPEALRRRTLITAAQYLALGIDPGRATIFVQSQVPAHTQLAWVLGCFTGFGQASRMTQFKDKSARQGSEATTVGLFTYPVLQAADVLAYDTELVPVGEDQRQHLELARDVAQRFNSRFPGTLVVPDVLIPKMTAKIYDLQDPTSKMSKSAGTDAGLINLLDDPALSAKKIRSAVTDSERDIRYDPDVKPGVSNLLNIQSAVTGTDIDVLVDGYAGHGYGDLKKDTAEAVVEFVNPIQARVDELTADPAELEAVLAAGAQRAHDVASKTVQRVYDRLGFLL
UniProt I6X8D2, whole entry: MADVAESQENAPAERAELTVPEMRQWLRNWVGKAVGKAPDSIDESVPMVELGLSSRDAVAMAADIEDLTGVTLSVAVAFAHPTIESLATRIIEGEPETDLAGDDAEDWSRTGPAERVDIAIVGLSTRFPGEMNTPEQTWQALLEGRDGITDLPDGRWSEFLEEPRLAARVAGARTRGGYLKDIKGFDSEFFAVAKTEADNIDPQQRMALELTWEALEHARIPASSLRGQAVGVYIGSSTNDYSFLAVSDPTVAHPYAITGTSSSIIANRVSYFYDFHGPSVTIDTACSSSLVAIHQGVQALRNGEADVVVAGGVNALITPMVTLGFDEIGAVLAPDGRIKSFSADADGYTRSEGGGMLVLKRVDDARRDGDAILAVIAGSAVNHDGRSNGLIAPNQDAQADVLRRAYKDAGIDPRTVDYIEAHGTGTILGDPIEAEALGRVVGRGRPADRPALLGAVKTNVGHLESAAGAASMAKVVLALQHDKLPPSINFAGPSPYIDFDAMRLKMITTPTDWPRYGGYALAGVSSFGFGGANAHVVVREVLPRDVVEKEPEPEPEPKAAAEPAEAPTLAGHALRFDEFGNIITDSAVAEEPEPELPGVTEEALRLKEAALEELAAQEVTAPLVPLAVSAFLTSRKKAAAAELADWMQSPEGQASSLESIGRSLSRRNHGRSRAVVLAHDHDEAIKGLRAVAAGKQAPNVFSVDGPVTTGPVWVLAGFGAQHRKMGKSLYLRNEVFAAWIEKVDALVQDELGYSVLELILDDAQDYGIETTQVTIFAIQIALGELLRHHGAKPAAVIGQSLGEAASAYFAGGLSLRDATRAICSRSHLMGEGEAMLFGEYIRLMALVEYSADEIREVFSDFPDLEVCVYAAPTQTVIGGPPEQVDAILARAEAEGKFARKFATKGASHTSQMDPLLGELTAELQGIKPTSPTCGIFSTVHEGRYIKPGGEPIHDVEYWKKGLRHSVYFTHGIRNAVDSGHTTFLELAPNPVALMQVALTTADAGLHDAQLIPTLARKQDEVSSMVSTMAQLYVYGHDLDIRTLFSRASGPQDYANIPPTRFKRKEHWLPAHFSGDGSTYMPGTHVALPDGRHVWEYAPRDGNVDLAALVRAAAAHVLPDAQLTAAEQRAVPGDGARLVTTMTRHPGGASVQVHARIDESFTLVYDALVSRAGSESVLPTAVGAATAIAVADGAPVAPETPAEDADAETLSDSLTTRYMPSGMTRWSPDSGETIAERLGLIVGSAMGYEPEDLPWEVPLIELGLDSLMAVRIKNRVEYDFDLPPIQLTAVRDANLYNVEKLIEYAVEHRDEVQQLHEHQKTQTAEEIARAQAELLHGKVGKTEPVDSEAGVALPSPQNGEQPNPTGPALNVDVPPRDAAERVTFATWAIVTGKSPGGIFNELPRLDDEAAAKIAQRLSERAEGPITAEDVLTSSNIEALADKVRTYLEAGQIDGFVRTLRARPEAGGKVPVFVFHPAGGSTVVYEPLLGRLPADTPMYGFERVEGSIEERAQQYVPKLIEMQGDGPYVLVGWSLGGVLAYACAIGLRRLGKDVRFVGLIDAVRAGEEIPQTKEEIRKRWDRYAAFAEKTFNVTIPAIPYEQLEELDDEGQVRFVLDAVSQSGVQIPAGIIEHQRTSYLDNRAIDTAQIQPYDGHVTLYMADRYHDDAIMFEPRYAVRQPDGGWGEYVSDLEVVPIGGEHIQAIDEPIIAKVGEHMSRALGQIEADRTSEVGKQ
UniProt A4I591, 1-473: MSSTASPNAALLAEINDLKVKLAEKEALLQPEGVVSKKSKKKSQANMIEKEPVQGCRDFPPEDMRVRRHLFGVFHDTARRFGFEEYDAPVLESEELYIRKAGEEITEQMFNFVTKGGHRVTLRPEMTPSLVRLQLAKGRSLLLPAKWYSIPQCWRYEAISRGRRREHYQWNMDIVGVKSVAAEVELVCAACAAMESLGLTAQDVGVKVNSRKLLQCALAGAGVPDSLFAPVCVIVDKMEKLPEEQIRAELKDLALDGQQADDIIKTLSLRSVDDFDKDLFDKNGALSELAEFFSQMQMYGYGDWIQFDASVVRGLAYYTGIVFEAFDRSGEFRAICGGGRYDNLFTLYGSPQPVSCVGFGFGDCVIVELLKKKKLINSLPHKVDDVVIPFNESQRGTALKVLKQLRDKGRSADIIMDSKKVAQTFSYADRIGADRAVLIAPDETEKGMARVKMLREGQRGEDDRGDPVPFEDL
UniProt Q8IDJ8, 1-583: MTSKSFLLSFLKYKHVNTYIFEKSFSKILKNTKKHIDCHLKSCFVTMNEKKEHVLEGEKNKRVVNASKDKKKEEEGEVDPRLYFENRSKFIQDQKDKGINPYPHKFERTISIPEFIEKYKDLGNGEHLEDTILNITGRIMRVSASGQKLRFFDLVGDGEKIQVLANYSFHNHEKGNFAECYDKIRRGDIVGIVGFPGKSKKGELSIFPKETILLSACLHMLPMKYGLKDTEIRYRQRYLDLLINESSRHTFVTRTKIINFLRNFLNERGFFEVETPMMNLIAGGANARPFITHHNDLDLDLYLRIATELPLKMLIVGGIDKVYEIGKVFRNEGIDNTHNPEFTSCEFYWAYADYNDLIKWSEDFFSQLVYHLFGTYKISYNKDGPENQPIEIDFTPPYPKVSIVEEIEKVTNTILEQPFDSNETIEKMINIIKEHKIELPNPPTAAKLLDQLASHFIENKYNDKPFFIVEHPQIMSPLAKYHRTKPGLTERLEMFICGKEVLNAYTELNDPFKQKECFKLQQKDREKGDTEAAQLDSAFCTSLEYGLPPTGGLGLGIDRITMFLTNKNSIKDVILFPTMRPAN

A: 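Enzyme assay of tryptophanyl-tRNA synthetase; the read-out is not stated. Target: Tryptophan-tRNA ligase, Mycobacterium tuberculosis (UniProt P9WFT3). Concentration: 10 µM. Higher most likely means stronger inhibition; the record gives no direction and few retests gave an IC50. Size under these conditions: about 65,000 compounds, about 64 of them at 50% or above in at least one test.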
B: 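Polyketide synthase Pks13, Mycobacterium tuberculosis (UniProt I6X8D2). Enzyme assay of the thioesterase domain of polyketide synthase 13; the read-out is not stated. Tested at 30 µM. The record gives no direction; the compounds picked for IC50 retests had high values, so higher reads as stronger inhibition. About 67,000 compounds were tested under these conditions; 0.46% (about 300) showed 50% or more at least once.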
C: 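Enzyme assay of histidyl-tRNA synthetase; the read-out is not stated. Target: Histidine-tRNA ligase, Leishmania infantum (UniProt A4I591). Tested at 30 µM. Higher reads as stronger inhibition (inferred: compounds with an IC50 in retests scored well above the rest). The assay is labelled LdHisRS but filed under L. infantum. Of about 69,000 compounds tested this way, about 410 (0.6%) reached 50% or more in at least one test.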
D: 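Enzyme assay of the cytosolic lysyl-tRNA synthetase in 384-well plates, read by luminescence. Target: Lysine-tRNA ligase, Plasmodium falciparum 3D7 (UniProt Q8IDJ8). Compounds at 30 µM. Direction is inferred from only a few compounds that gave an IC50; most scored high, so higher reads as stronger inhibition. About 69,000 compounds were tested under these conditions; 0.071% (about 49) showed 50% or more at least once.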

The filed quantity is “Percent Effect” (%). The record does not define 0% and 100%; most values in the screen are far below 50% and negative numbers occur (in some assays of this library far below -100). Compounds were drawn at random from those tested, without regard to their results. A dash means the value is not listed here; it may have been measured.

{"compound": "Cc1nc(C)c(C(=O)NCCNC(=O)Cc2ccc(F)cc2)s1", "A": 12.34, "B": -22.17, "C": -3.636, "D": -1.648}
{"compound": "CCS(=O)(=O)N1Cc2ncn(C)c2C(COCC2CCOCC2)C1", "stereo": "stereo not drawn", "A": -9.465, "C": 17.65, "D": 1.045}
{"compound": "CCc1noc(CN(C)C(=O)c2ccnc(OC3CCC3)c2)n1", "A": -2.381, "B": -5.927, "C": 9.589, "D": 4.26}
{"compound": "CC(C)(C)CN1CCCC2(CCN(C(=O)c3cn[nH]c3)C2)C1", "stereo": "stereo not drawn", "A": -3.636, "B": -15, "C": 39.39, "D": 4.693}
{"compound": "CC(C)(C)OC(=O)N[C@H]1CCN(c2cncc(Br)c2)C1", "A": 4.43, "B": 8.571, "C": 26.67, "D": 0.0846}
{"compound": "Cc1ncsc1C(=O)NC1CCN(c2ncccc2C#N)CC1", "A": 3.15, "B": -23.2, "C": 22.58, "D": 7.177}
{"compound": "O=C(COc1ccccc1)N(Cc1ccncc1)C1CC1", "A": -2.982, "B": -8.659, "C": 14.89, "D": 4.422}
{"compound": "O=C(C(c1ccccc1)S(=O)(=O)c1ccccn1)N1CCCCC1", "stereo": "stereo not drawn", "A": -0.4045, "B": -17.86, "C": 10.11, "D": 5.274}
{"compound": "Cc1nc(C)n(CC2CCCN(Cc3cccnc3)C2)n1", "stereo": "stereo not drawn", "A": -7.045, "B": -4.634, "C": 14.29, "D": -0.6741}
{"compound": "CC(=O)N1CCN(Cc2c(C)ccc3ccccc23)CC(O)C1", "stereo": "stereo not drawn", "A": 0.1235, "B": -28.61, "C": 8.889, "D": 0.5672}
{"compound": "CNC(=O)C1CCCCN1C(=O)CCn1cnc2sccc2c1=O", "stereo": "stereo not drawn", "A": 0.3425, "B": -12.33, "C": 14.58, "D": -1.924}
{"compound": "CCc1ccc(CN(C)C(=O)c2ccc(CSc3nnc[nH]3)o2)nc1", "A": 1.881, "B": -109.2, "C": 7.5, "D": 1.952}
{"compound": "O=S(=O)(NCC1COCc2c(-c3ccncc3)nnn2C1)C1CC1", "stereo": "stereo not drawn", "A": 1.757, "B": -2.716, "C": 15.6, "D": 2.92}
{"compound": "COCC1CN(CC2CC2)Cc2ncn(CC3CC3)c21", "stereo": "stereo not drawn", "A": 0.2722, "B": -3.141, "C": 11.11, "D": 0.5788}
{"compound": "Cc1cccc(-c2nccnc2C2CCCN(C)C2)c1C", "stereo": "stereo not drawn", "A": 11.46, "B": -11.91, "C": 5.755, "D": -1.338}
{"compound": "Cc1ccc(-n2cnnn2)cc1NCC(=O)Nc1ccccc1Cl", "A": 1.928, "B": -17.61, "C": 2.469, "D": 3.398}
{"compound": "NS(=O)(=O)N1CCC(CSc2ccccc2)C1", "stereo": "stereo not drawn", "A": -8.359, "C": 11.43, "D": -1.289}
{"compound": "CCC(=O)NC1CCCN(C(=O)c2ccc(OCC3CC3)nc2)C1", "stereo": "stereo not drawn", "A": -0.7158, "B": -10.3, "C": -5.376, "D": -1.683}
{"compound": "CCOC(=O)C1CCCN(c2ccc(-c3nc(C)no3)cn2)C1", "stereo": "stereo not drawn", "A": 4.796, "B": 15.68, "C": 16.5, "D": 0.6229}
{"compound": "CC(C)C(NCc1ccc(Cn2cncn2)cc1)c1ccccc1", "stereo": "stereo not drawn", "A": -1.762, "B": -7.289, "C": 14.29, "D": 3.242}
{"compound": "COc1cc(C(=O)N2CCCC(c3cc(C)[nH]n3)C2)ccc1C", "stereo": "stereo not drawn", "A": 3.107, "B": -7.422, "C": 9.649, "D": 0.6846}
{"compound": "CN1CCN(CC[C@@H]2CC[C@H](O)[C@@H](C(=O)Nc3ccccc3)O2)CC1", "A": 0.839, "B": -28.65, "C": 21.62, "D": 6.341}
{"compound": "N#Cc1cccnc1NC1CCN(c2ccccc2OC(F)F)C1=O", "stereo": "stereo not drawn", "A": -5.5, "B": 9.457, "C": 5.882, "D": -3.293}
{"compound": "CCS(=O)(=O)N1CCc2onc(COc3ccccn3)c2C1", "A": -2.913, "B": 11.21, "C": 17.24, "D": 9.542}
{"compound": "CCC(=O)N1CCCN(c2cncc(-n3nc(C)cc3C)n2)CC1", "A": -3.177, "B": 19.79, "C": 2.679, "D": 6.941}
{"compound": "COc1cc(C(=O)NS(=O)(=O)c2ccc(C#N)cc2)ccc1C", "A": -1.981, "B": -27.73, "C": 6.25, "D": 0.3174}
{"compound": "Cc1ccoc1C(=O)N1CCCC(c2cc(C(F)(F)F)[nH]n2)C1", "stereo": "stereo not drawn", "A": -4.309, "B": -6.688, "C": 14.55, "D": 1.002}
{"compound": "O=C(O)c1cc(S(=O)(=O)Nc2cccc(F)c2F)cc2c1OCCO2", "A": -4.916, "B": -10.8, "C": 6.25, "D": -0.1688}
{"compound": "COc1ccc2c(c1)C(=O)N(C)C1(CCN(CC=C(C)C)CC1)N2", "A": -0.3666, "B": -30.9, "C": 17.65, "D": 6.707}
{"compound": "Cc1ncoc1C(=O)N1CC[C@@H](O)[C@@H](O)[C@H](N2CCC(F)(F)CC2)C1", "B": -10.34, "C": 8.247, "D": 2.269}

The last 3 entries again:

| compound | A | B | C | D |
|---|---|---|---|---|
| `O=C(O)c1cc(S(=O)(=O)Nc2cccc(F)c2F)cc2c1OCCO2` | -4.916% | -10.8% | 6.25% | -0.1688% |
| `COc1ccc2c(c1)C(=O)N(C)C1(CCN(CC=C(C)C)CC1)N2` | -0.3666% | -30.9% | 17.65% | 6.707% |
| `Cc1ncoc1C(=O)N1CC[C@@H](O)[C@@H](O)[C@H](N2CCC(F)(F)CC2)C1` | - | -10.34% | 8.247% | 2.269% |

From ChEMBL document CHEMBL3988442, “University of Dundee, Small-Polar-MMV Screening Library” (2021).